The text below walks through data of publication PMC11101354.

Amino acid sequences for entries named in this document (tags omitted).
UniProt P10922: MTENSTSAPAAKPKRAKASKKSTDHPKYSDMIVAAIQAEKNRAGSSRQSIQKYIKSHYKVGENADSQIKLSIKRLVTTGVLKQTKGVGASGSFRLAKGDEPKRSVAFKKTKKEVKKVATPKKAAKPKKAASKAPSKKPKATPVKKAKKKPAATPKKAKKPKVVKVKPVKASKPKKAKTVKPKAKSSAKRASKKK
UniProt O09106: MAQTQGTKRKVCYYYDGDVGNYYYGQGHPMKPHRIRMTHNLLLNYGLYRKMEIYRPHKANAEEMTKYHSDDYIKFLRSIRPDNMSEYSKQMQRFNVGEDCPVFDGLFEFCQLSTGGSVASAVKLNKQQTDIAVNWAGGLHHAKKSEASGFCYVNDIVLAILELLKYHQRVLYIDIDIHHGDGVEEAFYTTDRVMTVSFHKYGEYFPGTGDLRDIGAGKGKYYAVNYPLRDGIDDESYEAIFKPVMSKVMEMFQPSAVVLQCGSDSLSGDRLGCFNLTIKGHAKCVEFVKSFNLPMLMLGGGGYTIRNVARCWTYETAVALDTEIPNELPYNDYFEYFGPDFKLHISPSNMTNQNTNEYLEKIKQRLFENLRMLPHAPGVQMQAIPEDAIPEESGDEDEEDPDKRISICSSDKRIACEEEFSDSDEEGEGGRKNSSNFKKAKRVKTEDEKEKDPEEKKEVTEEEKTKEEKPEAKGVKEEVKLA

These are yes or no findings as the source states them, for the method shown. In cells and extracts the contact can be indirect. Some entries that bind do so weakly or less than the wild type.

This assay concerns the target histone H1.0 (mouse, FLAG-tagged, expressed from Adv-GFP-H1.0-FLAG) (mouse) (UniProt P10922). Description: co-IP; anti-FLAG immunoprecipitation (FLAG Immunoprecipitation Kit, Sigma-Aldrich) from lysates of primary murine cardiac fibroblasts transfected with Adv-GFP-H1.0-FLAG or Adv-GFP for 48 h; eluted with SDS sample buffer, immunoblotting.

For the substance “HDAC1 (from UniProt O09106 1-482) (enzyme)”, the binding entry is reported as “binds”.
